For at least one compound, name, drawing or mass did not settle the structure.
Tested on: content of hyaluronic acid in skin
Assay: content of hyaluronic acid in skin of aging mice after application to dorsal skin
Type: in vivo
Conditions: 10^-4M; aging mice Balb/c, 48 weeks old; vs control group; Fig. 1
Text: Dehydroepiandrosterone (DHEA) as an ethanol solution at a concentration of 10^-1M was applied to skin of the dorsal part of aging mice (Balb/c, 48 weeks old, in each group consisting of 6 animals) for 5 weeks.
To evaluate the reproducibility of its efficacy, DHEA was applied in various concentrations of 10^-1, 10^-2 and 10^-3M to aging mice (Balb/c, 53 weeks, in each group consisting of 8 animals). Further, in order to see whether DHEA became effective only after it was metabolized to estrodiol, alimidex that inhibited aromatase, which is an enzyme for causing a conversion to estrogens, was administered simultaneously with DHEA. […] This means the concentration of DHEA can be lowered to a tenth of the initial value.

C[C@]12CC[C@@H]3c4ccc(O)cc4CC[C@H]3[C@@H]1CC[C@@H]2O [estradiol, reference compound]
content of hyaluronic acid in skin: increased the content of hyaluronic acid in skin with a statistically significant difference from the control group

Reference: patent EP0908183A1, “Dehydroepiandrosterone or derivatives thereof for increasing the content of hyaluronic acid in skin” (INSTITUTE FOR ADVANCED SKIN RESEARCH INC., priority 1997, dated 1999)
